According to publication PMC9341442:
These are yes or no findings as the source states them, for the method shown. Binding seen in cells or lysates may run through a third protein. Some entries that bind do so weakly or less than the wild type. For some assays here: Tags and fused reporters may be left off the sequences shown.

How the values were obtained:
[1] = target: T1, recombinant B7-H3 (human) (UniProt Q5ZPR3); assay: co-IP; NKL NP40 lysate incubated with recombinant B7-H3 for 1 h, then anti-human B7-H3 or anti-goat IgG 30 min at 4°C, Dynabeads Protein G overnight, western blot; only the target purified
T1 sequence: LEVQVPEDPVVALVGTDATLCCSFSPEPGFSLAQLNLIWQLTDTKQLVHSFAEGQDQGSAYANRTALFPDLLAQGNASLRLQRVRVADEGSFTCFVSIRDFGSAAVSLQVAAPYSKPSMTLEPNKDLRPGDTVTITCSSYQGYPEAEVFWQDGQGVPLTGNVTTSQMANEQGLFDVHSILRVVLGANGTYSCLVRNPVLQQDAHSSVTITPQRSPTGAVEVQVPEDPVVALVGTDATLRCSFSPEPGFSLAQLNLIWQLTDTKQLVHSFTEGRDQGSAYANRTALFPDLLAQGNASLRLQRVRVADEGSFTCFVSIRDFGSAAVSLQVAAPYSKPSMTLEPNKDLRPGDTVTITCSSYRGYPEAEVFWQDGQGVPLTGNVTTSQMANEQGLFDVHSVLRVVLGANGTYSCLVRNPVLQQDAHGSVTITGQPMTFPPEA

[2] = target: T2, Halo-tagged B7-H3 (human) (UniProt Q5ZPR3); assay: pull-down; called co-IP by the paper; Halo-tagged B7-H3 from HEK293 NP40 lysate bound to Magne HaloTag beads overnight at 4°C, incubated with Jurkat cells, lysed in 100 mM octyl glucoside, washed, released with TEV protease, western blot; only the target purified
T2 sequence: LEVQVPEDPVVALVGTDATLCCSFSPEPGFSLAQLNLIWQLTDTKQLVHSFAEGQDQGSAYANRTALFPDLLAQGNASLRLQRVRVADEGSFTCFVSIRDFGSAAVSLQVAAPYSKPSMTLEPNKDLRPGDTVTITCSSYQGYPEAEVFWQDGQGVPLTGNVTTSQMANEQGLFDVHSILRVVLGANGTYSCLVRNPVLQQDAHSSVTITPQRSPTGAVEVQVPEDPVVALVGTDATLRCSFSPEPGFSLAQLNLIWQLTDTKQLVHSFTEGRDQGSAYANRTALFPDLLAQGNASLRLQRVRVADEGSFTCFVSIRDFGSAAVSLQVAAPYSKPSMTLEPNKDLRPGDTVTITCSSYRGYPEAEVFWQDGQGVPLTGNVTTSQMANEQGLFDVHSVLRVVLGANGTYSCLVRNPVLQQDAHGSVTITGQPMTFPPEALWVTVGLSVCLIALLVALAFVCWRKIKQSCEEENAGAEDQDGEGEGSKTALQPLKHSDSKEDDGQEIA

binding [1]: binds
binding [2]: binds
B1: angio-associated migratory cell protein (AAMP), endogenous (protein, UniProt Q13685 1-434)
chain: MESESESGAAADTPPLETLSFHGDEEIIEVVELDPGPPDPDDLAQEMEDVDFEEEEEEEGNEEGWVLEPQEGVVGSMEGPDDSEVTFALHSASVFCVSLDPKTNTLAVTGGEDDKAFVWRLSDGELLFECAGHKDSVTCAGFSHDSTLVATGDMSGLLKVWQVDTKEEVWSFEAGDLEWMEWHPRAPVLLAGTADGNTWMWKVPNGDCKTFQGPNCPATCGRVLPDGKRAVVGYEDGTIRIWDLKQGSPIHVLKGTEGHQGPLTCVAANQDGSLILTGSVDCQAKLVSATTGKVVGVFRPETVASQPSLGEGEESESNSVESLGFCSVMPLAAVGYLDGTLAIYDLATQTLRHQCQHQSGIVQLLWEAGTAVVYTCSLDGIVRLWDARTGRLLTDYRGHTAEILDFALSKDASLVVTTSGDHKAKVFCVQRPDR
